The list shows a part of the results.
What was measured:
Experiment in all cases: log2 fold change, soluble protein after heating vs DMSO (PISA); higher = thermal stabilisation; K562 lysate, 10 uM; active = over 0.2 and 3.5 SD of the protein, either way, in both replicates (recomputed)
[1] = compound: CS(=O)(=O)CCNCc1ccc(-c2ccc3ncnc(Nc4ccc(OCc5cccc(F)c5)c(Cl)c4)c3c2)o1 [lapatinib]
Outline: (§1)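 Dounce homogenisation of K562 pellets in PBS pH 7.4 with 1 mM MgCl2 produced a crude extract, used at 1 mg/mL protein. Exposure to 10 μM compound lasted 30 min, and aliquots were then heated for 3 min across 48°C-58°C, pooled and brought to 0.5% NP-40 at 4°C. The supernatant after 21,000xg for 90 min was quantified by TMTpro 16plex LC-MS/MS with channel sums equalised. Duplicate values are given as log-two fold change in thermal stability relative to solvent controls.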

Amino acid sequences for entries named in this document (tags omitted). A change or cut given only in a name is not applied to a line headed by its entry.
UniProt Q9BSD7: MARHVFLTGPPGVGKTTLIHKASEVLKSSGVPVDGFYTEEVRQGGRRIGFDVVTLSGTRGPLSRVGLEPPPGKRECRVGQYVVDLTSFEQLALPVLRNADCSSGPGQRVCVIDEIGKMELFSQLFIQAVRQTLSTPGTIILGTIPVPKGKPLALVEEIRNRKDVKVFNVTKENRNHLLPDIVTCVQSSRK
UniProt Q9NPE3: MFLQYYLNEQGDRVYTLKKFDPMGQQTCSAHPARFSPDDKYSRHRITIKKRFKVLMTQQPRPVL
UniProt Q9Y5Y2: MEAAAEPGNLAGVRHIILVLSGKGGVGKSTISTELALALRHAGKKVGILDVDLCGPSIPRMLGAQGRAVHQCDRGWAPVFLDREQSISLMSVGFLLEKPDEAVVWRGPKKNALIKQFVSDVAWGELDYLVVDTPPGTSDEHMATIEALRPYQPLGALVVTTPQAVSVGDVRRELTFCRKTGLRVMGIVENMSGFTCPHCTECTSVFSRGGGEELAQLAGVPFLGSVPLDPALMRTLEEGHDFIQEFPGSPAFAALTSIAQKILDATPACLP
UniProt Q9UMY1: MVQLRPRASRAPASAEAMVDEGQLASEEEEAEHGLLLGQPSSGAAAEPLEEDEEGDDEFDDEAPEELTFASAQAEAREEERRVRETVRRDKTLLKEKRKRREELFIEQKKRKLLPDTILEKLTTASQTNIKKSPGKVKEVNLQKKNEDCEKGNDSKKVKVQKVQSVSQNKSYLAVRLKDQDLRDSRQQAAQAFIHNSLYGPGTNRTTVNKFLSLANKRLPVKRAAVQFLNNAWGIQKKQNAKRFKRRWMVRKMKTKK
UniProt Q9UHY1: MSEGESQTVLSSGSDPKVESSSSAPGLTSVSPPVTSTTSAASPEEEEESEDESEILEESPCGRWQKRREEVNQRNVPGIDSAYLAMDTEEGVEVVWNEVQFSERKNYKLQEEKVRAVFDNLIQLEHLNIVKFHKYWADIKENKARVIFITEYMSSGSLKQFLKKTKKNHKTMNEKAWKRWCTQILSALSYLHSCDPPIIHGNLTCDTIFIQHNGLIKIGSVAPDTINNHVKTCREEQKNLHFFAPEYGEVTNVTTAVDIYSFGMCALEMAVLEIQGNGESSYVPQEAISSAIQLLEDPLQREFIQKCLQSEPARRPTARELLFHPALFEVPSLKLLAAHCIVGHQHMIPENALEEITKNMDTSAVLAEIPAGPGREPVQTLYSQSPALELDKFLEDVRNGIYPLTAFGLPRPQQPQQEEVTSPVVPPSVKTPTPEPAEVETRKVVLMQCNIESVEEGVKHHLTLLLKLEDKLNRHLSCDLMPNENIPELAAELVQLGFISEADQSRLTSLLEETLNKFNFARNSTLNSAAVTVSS
UniProt Q9BVI4: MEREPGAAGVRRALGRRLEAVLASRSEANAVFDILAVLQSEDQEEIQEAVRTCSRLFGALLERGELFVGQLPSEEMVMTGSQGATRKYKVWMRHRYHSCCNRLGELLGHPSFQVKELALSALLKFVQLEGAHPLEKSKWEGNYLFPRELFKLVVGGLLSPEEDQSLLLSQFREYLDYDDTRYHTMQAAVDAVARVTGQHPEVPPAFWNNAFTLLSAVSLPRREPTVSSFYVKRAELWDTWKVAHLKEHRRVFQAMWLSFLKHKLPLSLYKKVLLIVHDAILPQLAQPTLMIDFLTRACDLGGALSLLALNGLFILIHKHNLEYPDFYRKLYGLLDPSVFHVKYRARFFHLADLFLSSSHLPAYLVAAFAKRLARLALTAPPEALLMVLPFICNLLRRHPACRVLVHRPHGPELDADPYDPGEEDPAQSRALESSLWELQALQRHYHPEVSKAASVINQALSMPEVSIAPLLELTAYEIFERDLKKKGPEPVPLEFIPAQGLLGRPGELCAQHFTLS
UniProt Q96IY1: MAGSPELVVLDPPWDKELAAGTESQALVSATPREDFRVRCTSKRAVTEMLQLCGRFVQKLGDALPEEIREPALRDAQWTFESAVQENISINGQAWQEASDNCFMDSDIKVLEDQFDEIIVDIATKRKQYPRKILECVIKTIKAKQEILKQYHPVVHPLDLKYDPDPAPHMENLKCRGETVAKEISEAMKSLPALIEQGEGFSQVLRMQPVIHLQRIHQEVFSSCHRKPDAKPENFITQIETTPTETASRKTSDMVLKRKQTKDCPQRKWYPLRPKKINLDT
UniProt P40261: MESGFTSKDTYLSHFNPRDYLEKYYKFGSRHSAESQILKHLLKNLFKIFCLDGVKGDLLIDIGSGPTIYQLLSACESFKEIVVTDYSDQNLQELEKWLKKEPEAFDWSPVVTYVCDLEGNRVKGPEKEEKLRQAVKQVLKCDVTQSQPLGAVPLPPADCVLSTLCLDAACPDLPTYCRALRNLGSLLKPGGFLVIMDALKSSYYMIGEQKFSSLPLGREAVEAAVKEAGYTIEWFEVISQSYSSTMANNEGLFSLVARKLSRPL
UniProt P22392, whole entry, looked up: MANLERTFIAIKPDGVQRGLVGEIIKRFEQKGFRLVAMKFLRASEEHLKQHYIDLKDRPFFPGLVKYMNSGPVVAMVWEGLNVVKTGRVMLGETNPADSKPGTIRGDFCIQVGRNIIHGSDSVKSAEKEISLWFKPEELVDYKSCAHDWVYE
UniProt P16083: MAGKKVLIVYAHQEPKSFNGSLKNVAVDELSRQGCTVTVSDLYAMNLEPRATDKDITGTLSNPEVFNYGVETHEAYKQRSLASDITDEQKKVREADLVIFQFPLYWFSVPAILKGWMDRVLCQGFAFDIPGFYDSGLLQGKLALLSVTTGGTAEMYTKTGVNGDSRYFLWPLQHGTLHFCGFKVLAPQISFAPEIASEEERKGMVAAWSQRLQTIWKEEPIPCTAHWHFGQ
UniProt P80303: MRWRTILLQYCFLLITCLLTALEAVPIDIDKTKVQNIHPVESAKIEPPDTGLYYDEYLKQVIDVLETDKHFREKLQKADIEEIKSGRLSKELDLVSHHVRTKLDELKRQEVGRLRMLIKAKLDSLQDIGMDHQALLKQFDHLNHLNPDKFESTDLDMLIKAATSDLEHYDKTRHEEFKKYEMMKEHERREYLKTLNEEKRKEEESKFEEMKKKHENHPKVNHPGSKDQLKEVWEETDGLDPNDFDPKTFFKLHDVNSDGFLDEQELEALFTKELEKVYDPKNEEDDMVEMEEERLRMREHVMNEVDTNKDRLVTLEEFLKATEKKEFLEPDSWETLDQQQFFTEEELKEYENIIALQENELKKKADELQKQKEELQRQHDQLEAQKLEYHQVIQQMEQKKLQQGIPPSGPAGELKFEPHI
UniProt Q86WQ0: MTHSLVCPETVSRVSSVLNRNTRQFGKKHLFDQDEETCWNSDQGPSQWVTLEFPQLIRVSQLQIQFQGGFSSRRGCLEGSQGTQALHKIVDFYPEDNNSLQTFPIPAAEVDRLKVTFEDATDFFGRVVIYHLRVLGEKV
UniProt Q9BZD4: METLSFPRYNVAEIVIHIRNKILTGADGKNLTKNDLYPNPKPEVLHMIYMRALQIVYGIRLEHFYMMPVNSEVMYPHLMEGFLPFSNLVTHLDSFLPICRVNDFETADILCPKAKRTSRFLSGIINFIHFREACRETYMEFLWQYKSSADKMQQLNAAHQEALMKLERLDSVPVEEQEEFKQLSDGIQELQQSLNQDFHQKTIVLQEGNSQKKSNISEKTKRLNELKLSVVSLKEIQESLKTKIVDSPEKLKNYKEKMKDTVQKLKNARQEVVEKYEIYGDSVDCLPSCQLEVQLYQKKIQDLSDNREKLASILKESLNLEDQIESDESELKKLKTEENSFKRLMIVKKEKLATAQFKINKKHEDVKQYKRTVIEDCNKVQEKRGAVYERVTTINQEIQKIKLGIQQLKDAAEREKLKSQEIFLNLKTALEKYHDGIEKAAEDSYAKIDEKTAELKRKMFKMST
UniProt Q9H6R4: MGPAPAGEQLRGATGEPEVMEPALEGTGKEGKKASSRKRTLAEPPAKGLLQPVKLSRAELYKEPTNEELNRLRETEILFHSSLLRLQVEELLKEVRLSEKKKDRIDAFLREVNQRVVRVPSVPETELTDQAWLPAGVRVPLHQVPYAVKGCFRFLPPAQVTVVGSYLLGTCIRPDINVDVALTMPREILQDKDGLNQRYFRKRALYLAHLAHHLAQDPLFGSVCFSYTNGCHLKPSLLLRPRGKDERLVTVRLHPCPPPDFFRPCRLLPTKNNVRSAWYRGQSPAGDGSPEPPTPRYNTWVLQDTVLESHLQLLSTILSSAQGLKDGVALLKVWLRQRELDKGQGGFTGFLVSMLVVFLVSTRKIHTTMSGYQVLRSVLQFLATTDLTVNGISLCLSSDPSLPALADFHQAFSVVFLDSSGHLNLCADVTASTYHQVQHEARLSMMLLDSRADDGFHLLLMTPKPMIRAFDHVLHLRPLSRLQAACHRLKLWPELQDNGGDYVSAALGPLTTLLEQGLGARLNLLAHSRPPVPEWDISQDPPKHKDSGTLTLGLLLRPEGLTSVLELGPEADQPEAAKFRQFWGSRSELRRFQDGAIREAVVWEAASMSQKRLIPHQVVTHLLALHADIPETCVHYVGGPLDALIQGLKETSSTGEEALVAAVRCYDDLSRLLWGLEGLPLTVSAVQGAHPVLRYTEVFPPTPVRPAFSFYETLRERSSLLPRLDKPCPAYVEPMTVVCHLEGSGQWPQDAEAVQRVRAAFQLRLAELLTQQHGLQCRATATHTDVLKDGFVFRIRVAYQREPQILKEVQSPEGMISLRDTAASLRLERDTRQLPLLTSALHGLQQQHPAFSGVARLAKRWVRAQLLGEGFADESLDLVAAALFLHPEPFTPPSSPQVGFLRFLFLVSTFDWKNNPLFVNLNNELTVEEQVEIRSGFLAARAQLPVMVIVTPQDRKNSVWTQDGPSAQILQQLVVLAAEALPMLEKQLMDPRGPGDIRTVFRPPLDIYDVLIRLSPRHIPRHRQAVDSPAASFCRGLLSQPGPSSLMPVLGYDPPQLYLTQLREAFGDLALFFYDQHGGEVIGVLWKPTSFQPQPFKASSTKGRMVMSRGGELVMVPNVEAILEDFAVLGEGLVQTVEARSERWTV
UniProt P49902: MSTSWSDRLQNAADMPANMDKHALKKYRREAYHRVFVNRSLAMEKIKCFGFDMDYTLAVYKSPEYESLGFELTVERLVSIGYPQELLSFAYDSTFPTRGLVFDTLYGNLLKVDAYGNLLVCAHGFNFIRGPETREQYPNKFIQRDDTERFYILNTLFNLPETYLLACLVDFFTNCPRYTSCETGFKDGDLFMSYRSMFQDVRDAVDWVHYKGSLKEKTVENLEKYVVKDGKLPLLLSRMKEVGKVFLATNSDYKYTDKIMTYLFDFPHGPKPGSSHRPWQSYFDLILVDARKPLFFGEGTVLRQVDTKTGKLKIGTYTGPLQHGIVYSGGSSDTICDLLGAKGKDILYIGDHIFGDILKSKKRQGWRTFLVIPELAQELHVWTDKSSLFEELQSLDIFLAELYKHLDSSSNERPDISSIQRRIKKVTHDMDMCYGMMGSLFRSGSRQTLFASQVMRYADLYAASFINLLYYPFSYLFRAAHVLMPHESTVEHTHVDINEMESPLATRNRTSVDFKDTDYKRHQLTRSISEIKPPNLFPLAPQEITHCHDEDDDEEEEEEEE
UniProt Q9H0G5: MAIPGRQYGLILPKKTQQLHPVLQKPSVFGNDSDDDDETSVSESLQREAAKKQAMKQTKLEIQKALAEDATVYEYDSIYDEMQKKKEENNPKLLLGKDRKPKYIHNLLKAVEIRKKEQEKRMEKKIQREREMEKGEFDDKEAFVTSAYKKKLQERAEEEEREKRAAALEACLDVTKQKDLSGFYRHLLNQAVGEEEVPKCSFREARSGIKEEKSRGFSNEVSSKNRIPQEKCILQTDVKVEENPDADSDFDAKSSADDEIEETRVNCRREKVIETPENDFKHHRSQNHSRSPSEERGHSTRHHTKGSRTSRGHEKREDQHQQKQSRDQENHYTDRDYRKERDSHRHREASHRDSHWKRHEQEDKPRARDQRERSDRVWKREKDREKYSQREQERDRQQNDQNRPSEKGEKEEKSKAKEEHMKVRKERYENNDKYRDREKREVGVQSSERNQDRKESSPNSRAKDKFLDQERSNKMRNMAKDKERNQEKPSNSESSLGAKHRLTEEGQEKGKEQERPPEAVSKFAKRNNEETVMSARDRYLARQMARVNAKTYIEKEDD
UniProt Q15233: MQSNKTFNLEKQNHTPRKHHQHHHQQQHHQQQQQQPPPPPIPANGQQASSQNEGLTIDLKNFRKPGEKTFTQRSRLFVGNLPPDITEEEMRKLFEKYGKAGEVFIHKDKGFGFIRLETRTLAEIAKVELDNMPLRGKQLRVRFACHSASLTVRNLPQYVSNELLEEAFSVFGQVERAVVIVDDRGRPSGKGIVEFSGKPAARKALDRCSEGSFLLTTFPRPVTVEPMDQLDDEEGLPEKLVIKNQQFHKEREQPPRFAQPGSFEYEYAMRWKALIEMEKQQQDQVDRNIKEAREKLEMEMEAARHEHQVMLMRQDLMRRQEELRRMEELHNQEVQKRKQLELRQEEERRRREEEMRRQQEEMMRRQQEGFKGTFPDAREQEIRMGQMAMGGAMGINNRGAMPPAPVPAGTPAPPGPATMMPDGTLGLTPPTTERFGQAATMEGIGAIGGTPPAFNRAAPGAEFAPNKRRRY

[2] = compound: CS(=O)(=O)N1CCN(Cc2cc3nc(-c4cccc5[nH]ncc45)nc(N4CCOCC4)c3s2)CC1 [pictilisib]
Outline: as §1

[3] = compound: C[C@@H](Oc1cc(-c2cnn(C3CCNCC3)c2)cnc1N)c1c(Cl)ccc(F)c1Cl [crizotinib]
Outline: as §1

[4] = compound: C[C@H](C1=CC=C(C=C1)C(=O)NC2=C3C=CNC3=NC=C2)N
Outline: as §1

[5] = compound: C[C@H](Nc1ncnc2nc[nH]c12)c1cc2cccc(Cl)c2c(=O)n1-c1ccccc1 [duvelisib]
Outline: as §1

[6] = compound: Cc1cc(Nc2cc(CN3CCOCC3)c3nc(C)c(Cc4ccc(Cl)cc4F)n3n2)n[nH]1 [gandotinib]
Outline: as §1

[7] = compound: Cc1cc(Nc2cc(N3CCN(C)CC3)nc(Sc3ccc(NC(=O)C4CC4)cc3)n2)n[nH]1 [tozasertib]
Outline: as §1

[8] = compound: Cc1ccc(-n2nc(C(C)(C)C)cc2NC(=O)Nc2ccc(OCCN3CCOCC3)c3ccccc23)cc1 [doramapimod]
Outline: as §1

[9] = compound: Cc1ccc(NC(=O)c2ccc(CN3CC[C@H](N(C)C)C3)c(C(F)(F)F)c2)cc1Nc1nccc(-c2cncnc2)n1 [bafetinib]
Outline: as §1

[10] = compound: Cc1cccc(CC(=O)N2CCc3c2ccc(-c2cn(C)c4ncnc(N)c24)c3F)n1
Outline: as §1

Measured: log2 fold change

NTPCR (UniProt Q9BSD7)
inactive: [1] -0.003 | [2] -0.028 | [3] -0.071 | [4] 0.031 | [5] -0.003 | [6] -0.094 | [7] -0.028 | [8] 0.011 | [9] -0.044 | [10] -0.052

NOP10 (UniProt Q9NPE3)
inactive: [1] -0.084 | [2] -0.148 | [3] 0.045 | [4] 0.013 | [5] 0.046 | [6] -0.051 | [7] -0.102 | [8] 0.067 | [9] 0.087 | [10] -0.006

NUBP2 (UniProt Q9Y5Y2)
inactive: [1] -0.037 | [2] 0.023 | [3] -0.004 | [4] 0.214 | [5] -0.003 | [6] -0.072 | [7] 0.013 | [8] 0.003 | [9] 0.009 | [10] -0.063

NOL7 (UniProt Q9UMY1)
inactive: [1] 0.001 | [2] -0.055 | [3] 0.063 | [4] 0.119 | [5] -0.077 | [6] -0.045 | [7] 0.009 | [8] 0.153 | [9] 0.117 | [10] -0.125

NPEPPS (UniProt P55786)
inactive: [1] -0.011 | [2] -0.004 | [3] 0.018 | [4] -0.018 | [5] 0.017 | [6] 0.014 | [7] -0.003 | [8] -0.019 | [9] 0.022 | [10] -0.01

NRBP1 (UniProt Q9UHY1)
inactive: [1] 0.003 | [2] 0.005 | [3] -0.023 | [4] -0.021 | [5] 0.011 | [6] 0.068 | [7] -0.031 | [8] -0.004 | [9] -0.015 | [10] 0.041

NOL9 (UniProt Q5SY16)
inactive: [1] 0.01 | [2] 0.025 | [3] -0.013 | [4] 0.031 | [5] 0.053 | [6] -0.099 | [7] 0.056 | [8] -0.014 | [9] -0.082 | [10] -0.052

NOC4L (UniProt Q9BVI4)
inactive: [1] -0.023 | [2] 0.037 | [3] -0.035 | [4] 0.071 | [5] -0.016 | [6] -0.166 | [7] 0.027 | [8] 0.022 | [9] -0.171 | [10] -0.029

NUCB1 (UniProt Q02818)
inactive: [1] 0.006 | [2] -0.06 | [3] 0.008 | [4] -0.017 | [5] 0.004 | [6] 0.048 | [7] 0.006 | [8] -0.001 | [9] -0.011 | [10] -0.003

NOMO1 (UniProt Q15155)
inactive: [1] 0.005 | [2] -0.004 | [3] -0.077 | [4] 0.314 | [5] 0.057 | [6] -0.158 | [7] -0.302 | [8] -0.06 | [9] 0.014 | [10] -0.321

NSL1 (UniProt Q96IY1)
inactive: [1] -0.003 | [2] -0.032 | [3] 0.051 | [4] 0.001 | [5] -0.033 | [6] 0.094 | [7] -0.01 | [8] -0.047 | [9] 0.034 | [10] 0.006

NSUN2 (UniProt Q08J23)
inactive: [1] -0.009 | [2] -0.006 | [3] -0.024 | [4] 0.072 | [5] -0.005 | [6] -0.05 | [7] -0.011 | [8] -0.009 | [9] -0.038 | [10] -0.007

NOL10 (UniProt Q9BSC4)
inactive: [1] -0.004 | [2] 0.017 | [3] -0.049 | [4] 0.119 | [5] 0.125 | [6] -0.151 | [7] 0.015 | [8] 0.042 | [9] -0.1 | [10] -0.055

NNMT (UniProt P40261)
inactive: [1] -0.017 | [2] 0.037 | [3] -0.065 | [4] -0.072 | [5] 0.066 | [6] 0.015 | [7] 0 | [8] 0.013 | [9] -0.066 | [10] -0.001

NRBF2 (UniProt Q96F24)
inactive: [1] 0.023 | [2] -0.014 | [3] 0.021 | [4] 0.033 | [5] 0.001 | [6] 0.082 | [7] 0.05 | [8] 0.016 | [9] -0.008 | [10] -0.007

NME2 isoform 2 (UniProt P22392)
inactive: [1] -0.003 | [2] 0.009 | [3] 0.018 | [4] -0.045 | [5] 0.006 | [6] 0.049 | [7] -0.026 | [8] 0.011 | [9] 0.027 | [10] 0.014

NTHL1 (UniProt P78549)
inactive: [1] -0.117 | [2] -0.401 | [3] 0.001 | [4] 0.097 | [5] -0.018 | [6] -0.007 | [7] -0.081 | [8] 0.012 | [9] -0.103 | [10] 0.091

NQO2 (UniProt P16083)
inactive: [1] 0.026 | [2] -0.023 | [3] 0.091 | [4] 0.007 | [5] -0.009 | [6] 0.01 | [7] 0.012 | [8] 0.022 | [9] 0.017 | [10] -0.008

NUCB2 (UniProt P80303)
active: [4] 0.253
inactive: [1] -0.006 | [2] -0.006 | [3] 0.041 | [5] 0.008 | [6] -0.044 | [7] 0.003 | [8] -0.024 | [9] -0.022 | [10] -0.126

NR2C2AP isoform 2 (UniProt Q86WQ0)
inactive: [1] -0.005 | [2] -0.003 | [3] -0.005 | [4] 0.005 | [5] 0.033 | [6] -0.071 | [7] 0.115 | [8] 0.01 | [9] 0.012 | [10] 0.016

NME1 isoform 2 (UniProt P15531)
inactive: [1] 0.053 | [2] 0.039 | [3] 0.044 | [4] -0.151 | [5] 0.098 | [6] 0.108 | [7] -0.075 | [8] -0.095 | [9] 0.059 | [10] -0.128

NUDT2 (UniProt P50583)
inactive: [1] 0.006 | [2] -0.031 | [3] -0.043 | [4] -0.025 | [5] 0.002 | [6] 0.03 | [7] -0.003 | [8] 0.051 | [9] 0.015 | [10] 0.032

NUF2 (UniProt Q9BZD4)
inactive: [1] -0.002 | [2] -0.028 | [3] -0.024 | [4] -0.023 | [5] -0.019 | [6] -0.103 | [7] 0.023 | [8] 0.008 | [9] -0.087 | [10] 0.053

NOLC1 isoform 3 (UniProt Q14978)
inactive: [1] 0.005 | [2] 0.06 | [3] -0.083 | [4] -0.053 | [5] 0.191 | [6] 0.133 | [7] -0.022 | [8] -0.062 | [9] -0.092 | [10] 0.022

NOL6 (UniProt Q9H6R4)
inactive: [1] -0.018 | [2] -0.027 | [3] -0.009 | [4] 0.011 | [5] 0.012 | [6] -0.011 | [7] -0.028 | [8] 0.012 | [9] -0.051 | [10] 0.036

2 entries picked at random from the list so far:
NOLC1 isoform 3 (UniProt Q14978)
inactive: [1] 0.005 | [2] 0.06 | [3] -0.083 | [4] -0.053 | [5] 0.191 | [6] 0.133 | [7] -0.022 | [8] -0.062 | [9] -0.092 | [10] 0.022

NOMO1 (UniProt Q15155)
inactive: [1] 0.005 | [2] -0.004 | [3] -0.077 | [4] 0.314 | [5] 0.057 | [6] -0.158 | [7] -0.302 | [8] -0.06 | [9] 0.014 | [10] -0.321

Remaining list, next part.

NOL11 (UniProt Q9H8H0)
inactive: [1] -0.008 | [2] -0.024 | [3] -0.02 | [4] -0.133 | [5] 0.025 | [6] 0.031 | [7] 0.011 | [8] 0.044 | [9] -0.026 | [10] 0.137

NT5C2 (UniProt P49902)
inactive: [1] -0.011 | [2] 0.021 | [3] -0.017 | [4] 0.01 | [5] -0.025 | [6] -0.008 | [7] -0.05 | [8] -0.041 | [9] -0.026 | [10] -0.016

NSRP1 (UniProt Q9H0G5)
inactive: [1] 0.015 | [2] 0 | [3] 0.039 | [4] 0.045 | [5] 0.02 | [6] -0.022 | [7] -0.04 | [8] 0.013 | [9] -0.035 | [10] -0.079

NONO (UniProt Q15233)
inactive: [1] -0.004 | [2] 0.001 | [3] 0.011 | [4] 0.071 | [5] -0.01 | [6] -0.06 | [7] 0.028 | [8] -0.014 | [9] -0.033 | [10] -0.04

NSF (UniProt P46459)
inactive: [1] -0.026 | [2] -0.014 | [3] 0.003 | [4] 0.033 | [5] 0.019 | [6] -0.105 | [7] 0.014 | [8] 0.008 | [9] -0.019 | [10] -0.009

— the supplement of paper PMC10849652
